Reference: paper PMC5862502, “Coordinated regulation of Arabidopsis microRNA biogenesis and red light signaling through Dicer-like 1 and phytochrome-interacting factor 4”
Results are given in words; binding and its absence hold for the method and conditions named. In cells and extracts the contact can be indirect. Some results given as binding are weak or reduced against the parent protein; the word gives no strength. Sequences can lack the tags named with a protein.

Protein sequences, listed by entry. Tags and fused reporters are not part of them.
UniProt Q9SP32: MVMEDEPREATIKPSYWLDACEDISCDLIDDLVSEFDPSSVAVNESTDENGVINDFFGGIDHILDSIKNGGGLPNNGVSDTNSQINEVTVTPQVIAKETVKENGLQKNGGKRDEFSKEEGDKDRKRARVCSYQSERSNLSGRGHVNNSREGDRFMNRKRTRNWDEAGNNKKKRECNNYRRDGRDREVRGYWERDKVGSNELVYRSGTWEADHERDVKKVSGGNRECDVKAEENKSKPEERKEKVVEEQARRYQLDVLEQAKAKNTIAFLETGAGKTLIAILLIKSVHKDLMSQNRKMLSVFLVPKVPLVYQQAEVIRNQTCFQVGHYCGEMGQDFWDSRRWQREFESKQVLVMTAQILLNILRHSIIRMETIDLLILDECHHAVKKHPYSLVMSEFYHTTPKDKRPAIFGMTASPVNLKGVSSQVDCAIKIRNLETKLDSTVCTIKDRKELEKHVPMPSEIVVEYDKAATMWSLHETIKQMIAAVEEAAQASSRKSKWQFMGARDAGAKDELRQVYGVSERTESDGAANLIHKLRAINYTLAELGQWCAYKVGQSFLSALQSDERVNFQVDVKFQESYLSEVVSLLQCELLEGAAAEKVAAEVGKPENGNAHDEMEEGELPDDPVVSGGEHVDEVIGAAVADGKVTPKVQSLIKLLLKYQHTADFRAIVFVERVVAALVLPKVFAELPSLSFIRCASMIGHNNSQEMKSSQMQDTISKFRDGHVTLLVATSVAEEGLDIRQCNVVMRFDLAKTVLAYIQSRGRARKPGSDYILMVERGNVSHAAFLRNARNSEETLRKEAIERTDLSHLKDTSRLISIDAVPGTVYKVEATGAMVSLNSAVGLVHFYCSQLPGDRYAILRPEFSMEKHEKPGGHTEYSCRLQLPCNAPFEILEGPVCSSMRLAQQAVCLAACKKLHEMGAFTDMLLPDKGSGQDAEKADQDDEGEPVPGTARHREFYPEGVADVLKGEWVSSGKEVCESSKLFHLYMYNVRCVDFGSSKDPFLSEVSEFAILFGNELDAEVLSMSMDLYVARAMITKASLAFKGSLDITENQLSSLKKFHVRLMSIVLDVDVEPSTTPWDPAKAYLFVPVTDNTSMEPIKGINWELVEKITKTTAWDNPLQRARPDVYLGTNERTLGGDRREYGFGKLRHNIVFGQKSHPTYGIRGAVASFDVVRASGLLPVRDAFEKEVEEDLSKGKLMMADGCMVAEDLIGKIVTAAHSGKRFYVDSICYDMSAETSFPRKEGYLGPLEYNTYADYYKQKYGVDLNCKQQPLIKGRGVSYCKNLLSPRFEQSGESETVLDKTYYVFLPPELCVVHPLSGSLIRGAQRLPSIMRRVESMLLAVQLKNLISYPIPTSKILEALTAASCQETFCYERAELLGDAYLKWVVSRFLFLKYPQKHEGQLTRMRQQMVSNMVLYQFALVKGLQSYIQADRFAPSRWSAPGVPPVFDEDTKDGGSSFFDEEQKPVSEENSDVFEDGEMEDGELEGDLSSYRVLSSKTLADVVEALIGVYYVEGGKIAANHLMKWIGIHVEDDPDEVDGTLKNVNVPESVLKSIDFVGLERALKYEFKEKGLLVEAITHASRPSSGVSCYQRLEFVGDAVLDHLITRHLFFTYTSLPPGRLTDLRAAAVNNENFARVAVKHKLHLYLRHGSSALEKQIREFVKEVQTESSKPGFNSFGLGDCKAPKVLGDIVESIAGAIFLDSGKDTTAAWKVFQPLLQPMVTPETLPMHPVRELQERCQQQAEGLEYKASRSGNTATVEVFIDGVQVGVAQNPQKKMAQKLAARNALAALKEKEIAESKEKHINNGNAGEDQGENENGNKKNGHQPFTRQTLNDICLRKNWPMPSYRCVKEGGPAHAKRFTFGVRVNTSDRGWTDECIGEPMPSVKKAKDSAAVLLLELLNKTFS

Columns and labels:
[1] = target: T1, PIF4-HA (pPIF4::PIF4-HA) (Arabidopsis) (UniProt Q8W2F3); test: co-IP; extracts of 4-day-old transgenic Arabidopsis seedlings (pPIF4::PIF4-HA and pDCL1::DCL1-YFP); anti-HA agarose; blots with anti-HA and anti-GFP
T1 sequence: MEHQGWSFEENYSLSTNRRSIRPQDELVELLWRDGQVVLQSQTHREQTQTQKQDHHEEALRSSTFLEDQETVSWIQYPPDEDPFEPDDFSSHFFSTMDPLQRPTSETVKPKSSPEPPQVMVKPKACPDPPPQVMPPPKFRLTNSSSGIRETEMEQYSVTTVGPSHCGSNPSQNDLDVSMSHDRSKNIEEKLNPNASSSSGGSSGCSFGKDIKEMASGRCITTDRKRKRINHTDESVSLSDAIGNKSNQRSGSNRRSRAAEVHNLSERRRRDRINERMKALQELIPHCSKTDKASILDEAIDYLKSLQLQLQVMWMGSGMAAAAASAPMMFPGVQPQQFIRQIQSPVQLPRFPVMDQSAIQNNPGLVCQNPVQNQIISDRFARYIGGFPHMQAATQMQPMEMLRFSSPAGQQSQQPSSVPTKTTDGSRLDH

[2] = target: DCL1 fused to the N-terminal fragment of YFP (YFPN) (Arabidopsis) (UniProt Q9SP32); test: split reporter; BiFC with YFPN and YFPC fusions, transient in tobacco leaf epidermal cells; imaged 48 h after co-inoculation

DCL1-YFP (pDCL1::DCL1-YFP) (from UniProt Q9SP32 1-1909) (enzyme)
binding [1]: binds

B1: C-terminal fragment of PIF4 (PIF4-C), BiFC fusion (domain or fragment, UniProt Q8W2F3 255-430)
chain: RSRAAEVHNLSERRRRDRINERMKALQELIPHCSKTDKASILDEAIDYLKSLQLQLQVMWMGSGMAAAAASAPMMFPGVQPQQFIRQIQSPVQLPRFPVMDQSAIQNNPGLVCQNPVQNQIISDRFARYIGGFPHMQAATQMQPMEMLRFSSPAGQQSQQPSSVPTKTTDGSRLDH
binding [2]: binds

B2: N-terminal fragment of PIF4 (PIF4-N), BiFC fusion (domain or fragment, UniProt Q8W2F3 1-254)
chain: MEHQGWSFEENYSLSTNRRSIRPQDELVELLWRDGQVVLQSQTHREQTQTQKQDHHEEALRSSTFLEDQETVSWIQYPPDEDPFEPDDFSSHFFSTMDPLQRPTSETVKPKSSPEPPQVMVKPKACPDPPPQVMPPPKFRLTNSSSGIRETEMEQYSVTTVGPSHCGSNPSQNDLDVSMSHDRSKNIEEKLNPNASSSSGGSSGCSFGKDIKEMASGRCITTDRKRKRINHTDESVSLSDAIGNKSNQRSGSNR
binding [2]: no binding
